# Source: the supplement of paper PMC6411743
# By UniProt entry, the sequences of proteins in these tests, tags left out. Where a name states a change or a piece, a line headed by the entry shows the natural chain unless it says otherwise.
# UniProt Q53H54: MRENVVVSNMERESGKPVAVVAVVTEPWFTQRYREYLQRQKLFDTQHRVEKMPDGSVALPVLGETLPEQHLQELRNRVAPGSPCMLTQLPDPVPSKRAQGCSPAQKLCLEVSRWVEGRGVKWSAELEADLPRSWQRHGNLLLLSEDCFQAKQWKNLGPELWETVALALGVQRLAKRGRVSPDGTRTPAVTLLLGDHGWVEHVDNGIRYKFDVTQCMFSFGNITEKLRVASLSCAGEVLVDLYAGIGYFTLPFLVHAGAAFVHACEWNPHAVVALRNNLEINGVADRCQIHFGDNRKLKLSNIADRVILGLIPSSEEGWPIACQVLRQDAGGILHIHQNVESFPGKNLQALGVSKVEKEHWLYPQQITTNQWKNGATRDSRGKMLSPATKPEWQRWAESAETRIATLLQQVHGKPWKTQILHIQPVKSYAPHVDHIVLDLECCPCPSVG
# UniProt Q3V6T2: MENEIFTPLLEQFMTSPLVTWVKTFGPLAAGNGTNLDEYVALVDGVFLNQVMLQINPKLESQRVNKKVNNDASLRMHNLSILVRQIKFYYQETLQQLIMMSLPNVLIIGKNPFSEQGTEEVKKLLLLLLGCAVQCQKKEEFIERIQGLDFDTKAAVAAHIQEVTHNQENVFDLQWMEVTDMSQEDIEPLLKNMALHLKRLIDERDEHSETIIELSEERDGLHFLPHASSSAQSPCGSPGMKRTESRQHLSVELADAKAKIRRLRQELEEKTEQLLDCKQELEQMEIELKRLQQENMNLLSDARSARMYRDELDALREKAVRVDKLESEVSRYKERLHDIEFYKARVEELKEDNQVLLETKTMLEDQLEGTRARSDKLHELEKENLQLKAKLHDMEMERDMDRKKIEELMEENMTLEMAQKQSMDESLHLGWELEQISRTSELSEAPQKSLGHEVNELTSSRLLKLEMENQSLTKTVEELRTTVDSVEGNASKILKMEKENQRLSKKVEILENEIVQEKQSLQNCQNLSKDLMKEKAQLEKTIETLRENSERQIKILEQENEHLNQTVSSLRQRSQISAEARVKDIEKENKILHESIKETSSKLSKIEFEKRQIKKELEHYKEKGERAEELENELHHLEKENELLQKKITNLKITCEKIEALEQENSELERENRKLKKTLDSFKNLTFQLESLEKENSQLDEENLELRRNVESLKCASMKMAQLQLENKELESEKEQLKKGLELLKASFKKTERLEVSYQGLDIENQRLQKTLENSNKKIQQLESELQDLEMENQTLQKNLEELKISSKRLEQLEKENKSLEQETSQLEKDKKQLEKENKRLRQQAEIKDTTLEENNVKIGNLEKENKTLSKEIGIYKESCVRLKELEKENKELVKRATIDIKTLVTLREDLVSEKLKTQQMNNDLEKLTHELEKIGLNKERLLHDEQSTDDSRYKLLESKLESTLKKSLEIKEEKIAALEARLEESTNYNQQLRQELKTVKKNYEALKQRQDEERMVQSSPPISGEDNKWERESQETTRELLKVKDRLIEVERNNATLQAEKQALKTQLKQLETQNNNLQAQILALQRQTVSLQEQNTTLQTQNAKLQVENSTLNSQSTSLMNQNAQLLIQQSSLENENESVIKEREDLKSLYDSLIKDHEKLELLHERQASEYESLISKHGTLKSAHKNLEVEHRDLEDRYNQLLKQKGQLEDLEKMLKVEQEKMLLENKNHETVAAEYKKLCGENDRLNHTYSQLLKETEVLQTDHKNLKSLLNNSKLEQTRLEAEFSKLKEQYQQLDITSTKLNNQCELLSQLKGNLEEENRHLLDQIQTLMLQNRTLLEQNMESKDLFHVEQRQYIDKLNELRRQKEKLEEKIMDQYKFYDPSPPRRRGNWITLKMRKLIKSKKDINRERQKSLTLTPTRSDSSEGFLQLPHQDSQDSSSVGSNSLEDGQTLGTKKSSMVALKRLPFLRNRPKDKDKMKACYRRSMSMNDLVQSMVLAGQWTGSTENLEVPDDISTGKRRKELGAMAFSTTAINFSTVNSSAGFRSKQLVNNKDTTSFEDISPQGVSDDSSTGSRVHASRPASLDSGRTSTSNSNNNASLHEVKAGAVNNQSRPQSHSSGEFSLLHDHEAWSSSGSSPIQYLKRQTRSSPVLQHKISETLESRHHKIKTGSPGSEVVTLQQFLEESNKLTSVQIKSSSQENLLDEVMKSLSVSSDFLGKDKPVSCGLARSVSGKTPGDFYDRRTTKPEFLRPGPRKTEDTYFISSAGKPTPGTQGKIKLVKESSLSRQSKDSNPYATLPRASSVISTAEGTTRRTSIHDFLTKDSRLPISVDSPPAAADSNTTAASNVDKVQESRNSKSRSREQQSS
# UniProt Q15390: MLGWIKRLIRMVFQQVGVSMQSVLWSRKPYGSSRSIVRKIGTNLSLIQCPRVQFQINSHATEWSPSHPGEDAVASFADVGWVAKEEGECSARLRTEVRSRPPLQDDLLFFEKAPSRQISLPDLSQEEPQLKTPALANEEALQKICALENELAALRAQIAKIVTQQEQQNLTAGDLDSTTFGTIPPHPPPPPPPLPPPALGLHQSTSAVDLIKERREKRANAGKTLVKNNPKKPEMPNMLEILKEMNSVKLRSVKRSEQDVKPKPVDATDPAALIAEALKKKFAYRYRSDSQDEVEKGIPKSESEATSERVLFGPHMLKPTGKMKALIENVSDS
# UniProt Q15907: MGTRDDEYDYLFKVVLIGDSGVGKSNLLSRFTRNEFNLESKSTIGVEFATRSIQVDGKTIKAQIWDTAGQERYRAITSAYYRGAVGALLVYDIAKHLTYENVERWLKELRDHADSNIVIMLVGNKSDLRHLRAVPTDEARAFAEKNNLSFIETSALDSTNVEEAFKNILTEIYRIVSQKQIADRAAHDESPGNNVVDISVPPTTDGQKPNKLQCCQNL
# UniProt Q5T0B9: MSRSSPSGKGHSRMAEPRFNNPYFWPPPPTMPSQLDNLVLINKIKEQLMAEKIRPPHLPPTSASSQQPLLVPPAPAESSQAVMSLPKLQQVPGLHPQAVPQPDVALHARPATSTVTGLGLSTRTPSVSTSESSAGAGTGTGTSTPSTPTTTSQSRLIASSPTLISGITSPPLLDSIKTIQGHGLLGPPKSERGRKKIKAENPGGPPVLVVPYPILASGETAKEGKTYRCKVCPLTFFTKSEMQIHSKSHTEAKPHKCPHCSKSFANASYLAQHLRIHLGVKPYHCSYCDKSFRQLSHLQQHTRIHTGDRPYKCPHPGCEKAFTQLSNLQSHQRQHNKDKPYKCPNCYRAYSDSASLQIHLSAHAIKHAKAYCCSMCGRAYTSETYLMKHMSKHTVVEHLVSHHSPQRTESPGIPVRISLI
# UniProt Q3MII6: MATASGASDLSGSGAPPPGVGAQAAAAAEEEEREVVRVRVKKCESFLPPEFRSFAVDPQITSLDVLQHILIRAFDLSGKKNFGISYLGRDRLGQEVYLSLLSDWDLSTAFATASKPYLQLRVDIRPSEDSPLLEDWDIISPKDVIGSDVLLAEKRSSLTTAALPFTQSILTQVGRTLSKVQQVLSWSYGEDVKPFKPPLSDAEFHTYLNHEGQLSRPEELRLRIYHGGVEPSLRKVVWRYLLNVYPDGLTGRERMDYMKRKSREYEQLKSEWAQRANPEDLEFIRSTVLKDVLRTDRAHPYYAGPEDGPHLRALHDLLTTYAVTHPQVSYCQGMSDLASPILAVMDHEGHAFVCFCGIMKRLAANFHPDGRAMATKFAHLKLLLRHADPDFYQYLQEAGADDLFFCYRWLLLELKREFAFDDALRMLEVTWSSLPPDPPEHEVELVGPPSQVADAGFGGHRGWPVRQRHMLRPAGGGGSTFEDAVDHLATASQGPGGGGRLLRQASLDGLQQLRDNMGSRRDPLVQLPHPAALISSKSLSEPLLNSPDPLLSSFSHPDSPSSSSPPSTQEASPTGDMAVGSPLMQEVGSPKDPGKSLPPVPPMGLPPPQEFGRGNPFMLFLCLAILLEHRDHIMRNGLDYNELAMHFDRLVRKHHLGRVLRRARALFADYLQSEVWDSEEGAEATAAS
# UniProt Q15544, whole entry: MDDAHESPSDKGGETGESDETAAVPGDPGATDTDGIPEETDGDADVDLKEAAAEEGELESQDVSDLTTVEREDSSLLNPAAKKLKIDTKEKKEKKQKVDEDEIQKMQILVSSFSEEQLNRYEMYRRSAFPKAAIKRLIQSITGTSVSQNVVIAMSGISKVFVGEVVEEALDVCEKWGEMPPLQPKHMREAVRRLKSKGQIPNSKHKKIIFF
# UniProt Q53GQ0: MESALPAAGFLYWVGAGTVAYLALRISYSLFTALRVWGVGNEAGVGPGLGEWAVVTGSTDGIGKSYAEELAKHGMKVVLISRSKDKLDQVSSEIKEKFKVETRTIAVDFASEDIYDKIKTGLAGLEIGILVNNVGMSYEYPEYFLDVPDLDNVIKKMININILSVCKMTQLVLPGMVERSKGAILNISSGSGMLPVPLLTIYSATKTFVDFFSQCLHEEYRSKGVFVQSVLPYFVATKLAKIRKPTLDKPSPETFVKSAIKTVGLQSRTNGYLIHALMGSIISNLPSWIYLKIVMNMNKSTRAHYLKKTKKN
# UniProt Q9H6P5: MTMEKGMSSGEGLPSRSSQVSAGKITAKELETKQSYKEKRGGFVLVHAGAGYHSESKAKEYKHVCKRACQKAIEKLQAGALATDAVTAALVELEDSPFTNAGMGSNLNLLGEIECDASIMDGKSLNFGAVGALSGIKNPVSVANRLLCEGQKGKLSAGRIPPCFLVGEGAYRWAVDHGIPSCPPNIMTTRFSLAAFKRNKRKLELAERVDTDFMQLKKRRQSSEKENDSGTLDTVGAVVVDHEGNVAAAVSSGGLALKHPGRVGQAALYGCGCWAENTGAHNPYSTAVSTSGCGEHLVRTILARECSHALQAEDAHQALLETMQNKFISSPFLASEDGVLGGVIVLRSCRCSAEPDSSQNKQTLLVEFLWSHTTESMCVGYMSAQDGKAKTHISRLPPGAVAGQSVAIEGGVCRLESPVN
# UniProt Q3KRA6: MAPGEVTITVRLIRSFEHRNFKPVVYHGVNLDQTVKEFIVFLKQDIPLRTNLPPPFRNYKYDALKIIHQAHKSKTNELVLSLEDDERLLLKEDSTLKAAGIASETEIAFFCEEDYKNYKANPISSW
# UniProt Q15393: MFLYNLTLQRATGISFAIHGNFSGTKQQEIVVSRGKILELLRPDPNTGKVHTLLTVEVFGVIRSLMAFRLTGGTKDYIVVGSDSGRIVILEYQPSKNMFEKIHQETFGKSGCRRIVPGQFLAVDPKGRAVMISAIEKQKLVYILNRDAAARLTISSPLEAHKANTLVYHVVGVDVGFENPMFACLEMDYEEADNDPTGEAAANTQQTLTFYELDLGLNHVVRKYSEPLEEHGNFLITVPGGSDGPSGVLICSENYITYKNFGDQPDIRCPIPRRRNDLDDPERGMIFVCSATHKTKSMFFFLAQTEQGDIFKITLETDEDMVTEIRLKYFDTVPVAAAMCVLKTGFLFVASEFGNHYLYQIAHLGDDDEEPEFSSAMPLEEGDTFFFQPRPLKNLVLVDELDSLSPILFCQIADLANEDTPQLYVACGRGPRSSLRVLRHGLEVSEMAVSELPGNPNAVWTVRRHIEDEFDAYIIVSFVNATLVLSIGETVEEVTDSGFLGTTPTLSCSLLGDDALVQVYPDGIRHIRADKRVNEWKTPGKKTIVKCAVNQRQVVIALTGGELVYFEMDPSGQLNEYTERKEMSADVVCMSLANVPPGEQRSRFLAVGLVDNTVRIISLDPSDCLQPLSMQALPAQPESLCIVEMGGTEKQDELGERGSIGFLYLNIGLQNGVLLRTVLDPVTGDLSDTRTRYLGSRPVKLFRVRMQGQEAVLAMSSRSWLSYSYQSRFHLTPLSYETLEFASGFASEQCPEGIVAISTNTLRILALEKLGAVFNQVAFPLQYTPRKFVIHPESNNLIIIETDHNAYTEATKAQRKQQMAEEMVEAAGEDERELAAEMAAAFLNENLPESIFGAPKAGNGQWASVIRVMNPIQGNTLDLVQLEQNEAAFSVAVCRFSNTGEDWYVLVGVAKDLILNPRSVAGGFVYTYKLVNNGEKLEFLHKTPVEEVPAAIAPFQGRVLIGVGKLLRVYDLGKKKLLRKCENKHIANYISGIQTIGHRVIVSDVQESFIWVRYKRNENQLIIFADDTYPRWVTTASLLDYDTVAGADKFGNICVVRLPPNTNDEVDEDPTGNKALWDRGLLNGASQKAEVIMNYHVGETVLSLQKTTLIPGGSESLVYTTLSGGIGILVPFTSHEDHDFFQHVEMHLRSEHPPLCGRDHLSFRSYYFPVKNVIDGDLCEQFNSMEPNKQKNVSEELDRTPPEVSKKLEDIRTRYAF
# ± gives the standard deviation of the averaged measurements. The list shows a part of the results, in another mix than the full data.
# Compound: Nc1ncnc2c1ncn2[C@@H]1O[C@H](COP(=O)(O)OP(=O)(O)NP(=O)(O)O)[C@@H](O)[C@H]1O [adenylyl imidodiphosphate]
# Assay: NP40-soluble protein abundance relative to vehicle (solubility fold change) (ratio); higher = more soluble protein in presence of AMP-PNP
# Procedure, shortened: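 Across three independent experiments, values are fold changes against the detergent-processed vehicle for each replicate, based on vsn-normalised intensities. The samples were Jurkat crude lysate treated with eight concentrations (0.1 to 10 mM) for 10 min at room temperature and then 3 min at 37 °C. Lysate was solubilised with 0.8% NP40 and benzonase, ultracentrifuged, and the supernatant analysed by TMT-labelled LC-MS/MS.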
Target,NP40-soluble protein abundance (concentration: 1mM),NP40-soluble protein abundance (concentration: 2mM),NP40-soluble protein abundance (concentration: 4mM),NP40-soluble protein abundance (concentration: 6mM),NP40-soluble protein abundance (concentration: 8mM),NP40-soluble protein abundance (concentration: 10mM)
UniProt Q5T6F0,0.934 ± 0.1,0.994 ± 0.0043,1.01 ± 0.08,0.975 ± 0.039,0.9429 ± 0.0043,0.929 ± 0.036
TRIP13 (UniProt Q15645),1 ± 0.07,0.896 ± 0.085,0.975 ± 0.056,0.884 ± 0.025,0.946 ± 0.031,0.858 ± 0.034
UniProt Q16659,0.997 ± 0.033,1.02 ± 0.053,0.981 ± 0.026,0.975 ± 0.027,0.9755 ± 0.0082,0.939 ± 0.021
TRMT12 (UniProt Q53H54),1.02 ± 0.062,0.997 ± 0.067,1.01 ± 0.049,0.994 ± 0.033,0.962 ± 0.063,0.98 ± 0.068
UniProt Q562F6 and related entries,1.01 ± 0.025,1.02 ± 0.037,1.01 ± 0.022,1.02 ± 0.047,0.975 ± 0.035,1.01 ± 0.018
CMPK2 (UniProt Q5EBM0),0.993 ± 0.016,0.972 ± 0.027,1.01 ± 0.013,0.968 ± 0.018,1 ± 0.02,0.974 ± 0.029
UniProt Q3V6T2 and related entries,1.03 ± 0.02,1.04 ± 0.03,1.021 ± 0.0036,0.968 ± 0.028,0.9391 ± 0.0084,0.959 ± 0.011
UniProt Q15390 and related entries,1.008 ± 0.0075,1.05 ± 0.071,1.01 ± 0.02,1 ± 0.011,0.9719 ± 0.0073,0.989 ± 0.021
RAB11B (UniProt Q15907),0.935 ± 0.041,0.853 ± 0.067,0.888 ± 0.026,0.957 ± 0.047,0.97 ± 0.039,0.895 ± 0.02
UniProt Q5T0B9,1.02 ± 0.017,1.03 ± 0.037,1.01 ± 0.04,0.999 ± 0.016,0.961 ± 0.028,1.02 ± 0.049
TBC1D25 (UniProt Q3MII6),0.9908 ± 0.0091,0.995 ± 0.019,0.9837 ± 0.0051,0.969 ± 0.01,0.9987 ± 0.0092,0.992 ± 0.015
HECTD3 (UniProt Q5T447),0.969 ± 0.039,0.934 ± 0.072,0.962 ± 0.079,0.905 ± 0.068,0.919 ± 0.064,0.915 ± 0.1
UniProt Q15397,1.03 ± 0.03,1.08 ± 0.045,1.13 ± 0.083,1.15 ± 0.091,1.14 ± 0.07,1.24 ± 0.1
UniProt Q15424 and related entries,1.09 ± 0.08,1.17 ± 0.054,1.16 ± 0.097,1.23 ± 0.12,1.24 ± 0.084,1.3 ± 0.1
TAF11 (UniProt Q15544),1.01 ± 0.002,1.03 ± 0.022,1.06 ± 0.012,1.04 ± 0.045,1.05 ± 0.039,1.05 ± 0.085
UniProt Q16854 and related entries,0.968 ± 0.044,0.883 ± 0.072,0.951 ± 0.039,0.8878 ± 0.0088,0.939 ± 0.022,0.88 ± 0.026
UniProt Q5T280,1.01 ± 0.015,1.03 ± 0.015,1.005 ± 0.0046,1.06 ± 0.013,1.05 ± 0.0036,1.134 ± 0.01
TOR2A (UniProt Q5JU69),0.994 ± 0.02,0.99 ± 0.011,0.9767 ± 0.0048,0.9982 ± 0.0097,1.04 ± 0.024,1.005 ± 0.0066
UBE2S (UniProt Q16763),1.05 ± 0.029,1.02 ± 0.023,1.05 ± 0.03,0.989 ± 0.025,1.02 ± 0.018,0.989 ± 0.034
ADRM1 (UniProt Q16186),0.927 ± 0.069,0.962 ± 0.094,0.88 ± 0.1,0.876 ± 0.12,0.89 ± 0.12,0.891 ± 0.18
UniProt Q15596 and related entries,1.02 ± 0.042,1.03 ± 0.048,1.01 ± 0.037,0.984 ± 0.031,0.985 ± 0.011,0.994 ± 0.043
HSD17B12 (UniProt Q53GQ0),0.942 ± 0.027,0.882 ± 0.069,0.9126 ± 0.0083,0.946 ± 0.048,0.978 ± 0.034,0.921 ± 0.013
Q5JWM4 and related entries (UniProt Q9H6P5),1.01 ± 0.043,1.03 ± 0.066,1.03 ± 0.05,1.05 ± 0.054,1.1 ± 0.09,1.13 ± 0.066
UniProt Q16555 and related entries,1.02 ± 0.037,1.01 ± 0.036,1.01 ± 0.045,0.955 ± 0.022,0.958 ± 0.046,0.95 ± 0.048
MAPRE1 (UniProt Q15691),1.07 ± 0.051,1.15 ± 0.059,1.05 ± 0.093,1.02 ± 0.017,0.995 ± 0.027,1.04 ± 0.12
C2orf76 (UniProt Q3KRA6),1.03 ± 0.039,1 ± 0.052,1.02 ± 0.034,1.02 ± 0.052,1.02 ± 0.05,1.01 ± 0.037
UniProt Q15555 and related entries,1.04 ± 0.036,1.08 ± 0.075,0.991 ± 0.033,0.995 ± 0.016,0.968 ± 0.042,0.977 ± 0.073
ARHGAP15 (UniProt Q53QZ3),1.01 ± 0.043,1.013 ± 0.01,1.04 ± 0.039,1.04 ± 0.028,1.05 ± 0.037,1.052 ± 0.0088
SF3B3 (UniProt Q15393),0.961 ± 0.036,0.899 ± 0.077,0.978 ± 0.058,1.06 ± 0.026,1.1 ± 0.029,1.07 ± 0.083
UniProt Q460N5 and related entries,1.02 ± 0.02,0.993 ± 0.046,1.04 ± 0.039,0.9762 ± 0.0066,1.01 ± 0.029,0.9765 ± 0.0028

# Fetched one by one from the list above:
Target,NP40-soluble protein abundance (concentration: 1mM),NP40-soluble protein abundance (concentration: 2mM),NP40-soluble protein abundance (concentration: 4mM),NP40-soluble protein abundance (concentration: 6mM),NP40-soluble protein abundance (concentration: 8mM),NP40-soluble protein abundance (concentration: 10mM)
UniProt Q15390 and related entries,1.008 ± 0.0075,1.05 ± 0.071,1.01 ± 0.02,1 ± 0.011,0.9719 ± 0.0073,0.989 ± 0.021
UBE2S (UniProt Q16763),1.05 ± 0.029,1.02 ± 0.023,1.05 ± 0.03,0.989 ± 0.025,1.02 ± 0.018,0.989 ± 0.034
